From PMC7694386 come the findings set out here.

The chains behind the UniProt entries cited, without tags or fusion partners.
UniProt O95817: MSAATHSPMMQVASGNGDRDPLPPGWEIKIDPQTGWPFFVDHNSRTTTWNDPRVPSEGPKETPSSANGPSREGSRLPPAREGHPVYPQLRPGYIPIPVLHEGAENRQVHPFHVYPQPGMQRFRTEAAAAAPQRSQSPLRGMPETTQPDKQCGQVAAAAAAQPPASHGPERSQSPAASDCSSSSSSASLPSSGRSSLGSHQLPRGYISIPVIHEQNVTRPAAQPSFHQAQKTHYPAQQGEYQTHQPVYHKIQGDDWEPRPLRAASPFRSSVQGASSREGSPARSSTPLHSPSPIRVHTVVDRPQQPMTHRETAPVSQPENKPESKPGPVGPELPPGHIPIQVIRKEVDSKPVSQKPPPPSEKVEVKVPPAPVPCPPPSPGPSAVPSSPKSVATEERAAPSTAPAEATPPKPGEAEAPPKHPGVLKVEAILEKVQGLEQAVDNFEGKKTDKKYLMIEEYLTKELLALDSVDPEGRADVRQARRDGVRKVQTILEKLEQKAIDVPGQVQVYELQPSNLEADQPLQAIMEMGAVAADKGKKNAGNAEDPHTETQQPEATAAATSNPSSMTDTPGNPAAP

These are yes or no findings as the source states them, for the method shown. Binding seen in cells or lysates may run through a third protein. These calls come from enrichment with a bait or labelling near it, and not all partners need be listed.

The test addresses BAG3 (BCL-2-associated athanogene 3) (human (endogenous in HEK293T)) (UniProt O95817). In words: affinity purification with mass spectrometry; endogenous BAG3 immunoprecipitated with anti-BAG3 antibody and Protein A/G magnetic beads from HEK293T lysate; cells treated with DMSO (basal) or 10 µM MG132 for 6 h; IgG IP (MG132_IgG) as control; label-free quantification, three biological replicates.

B1: Wolframin (protein, UniProt O76024 1-890)
chain: MDSNTAPLGPSCPQPPPAPQPQARSRLNATASLEQERSERPRAPGPQAGPGPGVRDAAAPAEPQAQHTRSRERADGTGPTKGDMEIPFEEVLERAKAGDPKAQTEVGKHYLQLAGDTDEELNSCTAVDWLVLAAKQGRREAVKLLRRCLADRRGITSENEREVRQLSSETDLERAVRKAALVMYWKLNPKKKKQVAVAELLENVGQVNEHDGGAQPGPVPKSLQKQRRMLERLVSSESKNYIALDDFVEITKKYAKGVIPSSLFLQDDEDDDELAGKSPEDLPLRLKVVKYPLHAIMEIKEYLIDMASRAGMHWLSTIIPTHHINALIFFFIVSNLTIDFFAFFIPLVIFYLSFISMVICTLKVFQDSKAWENFRTLTDLLLRFEPNLDVEQAEVNFGWNHLEPYAHFLLSVFFVIFSFPIASKDCIPCSELAVITGFFTVTSYLSLSTHAEPYTRRALATEVTAGLLSLLPSMPLNWPYLKVLGQTFITVPVGHLVVLNVSVPCLLYVYLLYLFFRMAQLRNFKGTYCYLVPYLVCFMWCELSVVILLESTGLGLLRASIGYFLFLFALPILVAGLALVGVLQFARWFTSLELTKIAVTVAVCSVPLLLRWWTKASFSVVGMVKSLTRSSMVKLILVWLTAIVLFCWFYVYRSEGMKVYNSTLTWQQYGALCGPRAWKETNMARTQILCSHLEGHRVTWTGRFKYVRVTDIDNSAESAINMLPFFIGDWMRCLYGEAYPACSPGNTSTAEEELCRLKLLAKHPCHIKKFDRYKFEITVGMPFSSGADGSRSREEDDVTKDIVLRASSEFKSVLLSLRQGSLIEFSTILEGRLGSKWPVFELKAISCLNCMAQLSPTRRHVKIEHDWRSTVHGAVKFAFDFFFFPFLSAA
In the case of B1, the binding result is “binds”.

B2: kinesin KIF4A (protein, UniProt O95239 1-1232)
chain: MKEEVKGIPVRVALRCRPLVPKEISEGCQMCLSFVPGEPQVVVGTDKSFTYDFVFDPSTEQEEVFNTAVAPLIKGVFKGYNATVLAYGQTGSGKTYSMGGAYTAEQENEPTVGVIPRVIQLLFKEIDKKSDFEFTLKVSYLEIYNEEILDLLCPSREKAQINIREDPKEGIKIVGLTEKTVLVALDTVSCLEQGNNSRTVASTAMNSQSSRSHAIFTISLEQRKKSDKNSSFRSKLHLVDLAGSERQKKTKAEGDRLKEGININRGLLCLGNVISALGDDKKGGFVPYRDSKLTRLLQDSLGGNSHTLMIACVSPADSNLEETLNTLRYADRARKIKNKPIVNIDPQTAELNHLKQQVQQLQVLLLQAHGGTLPGSITVEPSENLQSLMEKNQSLVEENEKLSRGLSEAAGQTAQMLERIILTEQANEKMNAKLEELRQHAACKLDLQKLVETLEDQELKENVEIICNLQQLITQLSDETVACMAAAIDTAVEQEAQVETSPETSRSSDAFTTQHALRQAQMSKELVELNKALALKEALARKMTQNDSQLQPIQYQYQDNIKELELEVINLQKEKEELVLELQTAKKDANQAKLSERRRKRLQELEGQIADLKKKLNEQSKLLKLKESTERTVSKLNQEIRMMKNQRVQLMRQMKEDAEKFRQWKQKKDKEVIQLKERDRKRQYELLKLERNFQKQSNVLRRKTEEAAAANKRLKDALQKQREVADKRKETQSRGMEGTAARVKNWLGNEIEVMVSTEEAKRHLNDLLEDRKILAQDVAQLKEKKESGENPPPKLRRRTFSLTEVRGQVSESEDSITKQIESLETEMEFRSAQIADLQQKLLDAESEDRPKQRWENIATILEAKCALKYLIGELVSSKIQVSKLESSLKQSKTSCADMQKMLFEERNHFAEIETELQAELVRMEQQHQEKVLYLLSQLQQSQMAEKQLEESVSEKEQQLLSTLKCQDEELEKMREVCEQNQQLLRENEIIKQKLTLLQVASRQKHLPKDTLLSPDSSFEYVPPKPKPSRVKEKFLEQSMDIEDLKYCSEHSVNEHEDGDGDDDEGDDEEWKPTKLVKVSRKNIQGCSCKGWCGNKQCGCRKQKSDCGVDCCCDPTKCRNRQQGKDSLGTVERTQDSEGSFKLEDPTEVTPGLSFFNPVCATPNSKILKEMCDVEQVLSKKTPPAPSPFDLPELKHVATEYQENKAPGKKKKRALASNTSFFSGCSPIEEEAH
B2: the binding entry is reported as “binds”.

B3: DCP1B (protein, UniProt Q8IZD4 1-617)
chain: MAAVAAGGLVGKGRDISLAALQRHDPYINRIVDVASQVALYTFGHRANEWEKTDVEGTLFVYTRSASPKHGFTIMNRLSMENRTEPITKDLDFQLQDPFLLYRNARLSIYGIWFYDKEECQRIAELMKNLTQYEQLKAHQGTGAGISPVILNSGEGKEVDILRMLIKAKDEYTKCKTCSEPKKITSSSAIYDNPNLIKPIPVKPSENQQQRIPQPNQTLDPEPQHLSLTALFGKQDKATCQETVEPPQTLHQQQQQQQQQQEKLPIRQGVVRSLSYEEPRRHSPPIEKQLCPAIQKLMVRSADLHPLSELPENRPCENGSTHSAGEFFTGPVQPGSPHNIGTSRGVQNASRTQNLFEKLQSTPGAANKCDPSTPAPASSAALNRSRAPTSVTPVAPGKGLAQPPQAYFNGSLPPQTVGHQAHGREQSTLPRQTLPISGSQTGSSGVISPQELLKKLQIVQQEQQLHASNRPALAAKFPVLAQSSGTGKPLESWINKTPNTEQQTPLFQVISPQRIPATAAPSLLMSPMVFAQPTSVPPKERESGLLPVGGQEPPAAATSLLLPIQSPEPSVITSSPLTKLQLQEALLYLIQNDDNFLNIIYEAYLFSMTQAAMKKTM
Consider B3, for which the binding entry is reported as “binds”.

B4: Plastin-3 (protein, UniProt P13797 1-630)
chain: MDEMATTQISKDELDELKEAFAKVDLNSNGFICDYELHELFKEANMPLPGYKVREIIQKLMLDGDRNKDGKISFDEFVYIFQEVKSSDIAKTFRKAINRKEGICALGGTSELSSEGTQHSYSEEEKYAFVNWINKALENDPDCRHVIPMNPNTDDLFKAVGDGIVLCKMINLSVPDTIDERAINKKKLTPFIIQENLNLALNSASAIGCHVVNIGAEDLRAGKPHLVLGLLWQIIKIGLFADIELSRNEALAALLRDGETLEELMKLSPEELLLRWANFHLENSGWQKINNFSADIKDSKAYFHLLNQIAPKGQKEGEPRIDINMSGFNETDDLKRAESMLQQADKLGCRQFVTPADVVSGNPKLNLAFVANLFNKYPALTKPENQDIDWTLLEGETREERTFRNWMNSLGVNPHVNHLYADLQDALVILQLYERIKVPVDWSKVNKPPYPKLGANMKKLENCNYAVELGKHPAKFSLVGIGGQDLNDGNQTLTLALVWQLMRRYTLNVLEDLGDGQKANDDIIVNWVNRTLSEAGKSTSIQSFKDKTISSSLAVVDLIDAIQPGCINYDLVKSGNLTEDDKHNNAKYAVSMARRIGARVYALPEDLVEVKPKMVMTVFACLMGRGMKRV
B4: the binding entry is listed as “binds”.

B5: TTK (protein, UniProt P33981 1-857)
chain: MESEDLSGRELTIDSIMNKVRDIKNKFKNEDLTDELSLNKISADTTDNSGTVNQIMMMANNPEDWLSLLLKLEKNSVPLSDALLNKLIGRYSQAIEALPPDKYGQNESFARIQVRFAELKAIQEPDDARDYFQMARANCKKFAFVHISFAQFELSQGNVKKSKQLLQKAVERGAVPLEMLEIALRNLNLQKKQLLSEEEKKNLSASTVLTAQESFSGSLGHLQNRNNSCDSRGQTTKARFLYGENMPPQDAEIGYRNSLRQTNKTKQSCPFGRVPVNLLNSPDCDVKTDDSVVPCFMKRQTSRSECRDLVVPGSKPSGNDSCELRNLKSVQNSHFKEPLVSDEKSSELIITDSITLKNKTESSLLAKLEETKEYQEPEVPESNQKQWQSKRKSECINQNPAASSNHWQIPELARKVNTEQKHTTFEQPVFSVSKQSPPISTSKWFDPKSICKTPSSNTLDDYMSCFRTPVVKNDFPPACQLSTPYGQPACFQQQQHQILATPLQNLQVLASSSANECISVKGRIYSILKQIGSGGSSKVFQVLNEKKQIYAIKYVNLEEADNQTLDSYRNEIAYLNKLQQHSDKIIRLYDYEITDQYIYMVMECGNIDLNSWLKKKKSIDPWERKSYWKNMLEAVHTIHQHGIVHSDLKPANFLIVDGMLKLIDFGIANQMQPDTTSVVKDSQVGTVNYMPPEAIKDMSSSRENGKSKSKISPKSDVWSLGCILYYMTYGKTPFQQIINQISKLHAIIDPNHEIEFPDIPEKDLQDVLKCCLKRDPKQRISIPELLAHPYVQIQTHPVNQMAKGTTEEMKYVLGQLVGLNSPNSILKAAKTLYEHYSGGESHNSSSSKTFEKKRGKK
As for B5, the binding result is “binds”.

B6: DDX51 (protein, UniProt Q8N8A6 1-666)
chain: MALFYVARYPGPDAAAAAGPEGAEAGAHGRARALLERLQSRARERQQQREPAQTEAAASTEPATRRRRRPRRRRRVNDAEPGSPEAPQGKRRKADGEDAGAESNEEAPGEPSAGSSEEAPGEPSAGSSEEAPGERSTSASAEAAPDGPALEEAAGPLVPGLVLGGFGKRKAPKVQPFLPRWLAEPNCVRRNVTEDLVPIEDIPDVHPDLQKQLRAHGISSYFPVQAAVIPALLESAACGFLVGRGGYRPSDLCVSAPTGSGKTLAFVIPVVQALLSRVVCHIRALVVLPTKELAQQVSKVFNIYTDATPLRVSLVTGQKSLAKEQESLVQKTADGYRCLADIVVATPGRLVDHIDQTPGFSLQQLRFLIIDEADRMIDSMHQSWLPRVVAAAFQSEDPADPCALLQRRQAQAVTAASTCCPQMPLQKLLFSATLTQNPEKLQQLGLHQPRLFSTGLAHRGLEDTDGDGDSGKYAFPVGLTHHYVPCSLSSKPLVVLHLVLEMGFSRVLCFTNSRENSHRLFLLVQAFGGVDVAEFSSRYGPGQRRMILKQFEQGKIQLLISTDATARGIDVQGVELVVNYDAPQYLRTYVHRVGRTARAGKTGQAFTLLLKVQERRFLRMLTEAGAPELQRHELSSKLLQPLVPRYEEALSQLEESVKEERKQRAA
Consider B6, for which the binding result was “binds”.

B7: DDX52 (protein, UniProt Q9Y2R4 1-599)
chain: MDVHDLFRRLGAGAKFDTRRFSADAARFQIGKRKYDFDSSEVLQGLDFFGNKKSVPGVCGASQTHQKPQNGEKKEESLTERKREQSKKKRKTMTSEIASQEEGATIQWMSSVEAKIEDKKVQRESKLTSGKLENLRKEKINFLRNKHKIHVQGTDLPDPIATFQQLDQEYKINSRLLQNILDAGFQMPTPIQMQAIPVMLHGRELLASAPTGSGKTLAFSIPILMQLKQPANKGFRALIISPTRELASQIHRELIKISEGTGFRIHMIHKAAVAAKKFGPKSSKKFDILVTTPNRLIYLLKQDPPGIDLASVEWLVVDESDKLFEDGKTGFRDQLASIFLACTSHKVRRAMFSATFAYDVEQWCKLNLDNVISVSIGARNSAVETVEQELLFVGSETGKLLAVRELVKKGFNPPVLVFVQSIERAKELFHELIYEGINVDVIHAERTQQQRDNTVHSFRAGKIWVLICTALLARGIDFKGVNLVINYDFPTSSVEYIHRIGRTGRAGNKGKAITFFTEDDKPLLRSVANVIQQAGCPVPEYIKGFQKLLSKQKKKMIKKPLERESISTTPKCFLEKAKDKQKKVTGQNSKKKVALEDKS
With B7, the binding result is recorded as “binds”.
